Results as given in paper PMC5357305.
Results are given in words; binding and its absence hold for the method and conditions named. Binding seen in cells or lysates may run through a third protein. Some binding calls cover weakened binding; strength is not graded here. Tags and fused reporters may be left off the sequences shown.

By UniProt entry, the sequences of proteins in these tests, tags left out.
UniProt Q9GZV5: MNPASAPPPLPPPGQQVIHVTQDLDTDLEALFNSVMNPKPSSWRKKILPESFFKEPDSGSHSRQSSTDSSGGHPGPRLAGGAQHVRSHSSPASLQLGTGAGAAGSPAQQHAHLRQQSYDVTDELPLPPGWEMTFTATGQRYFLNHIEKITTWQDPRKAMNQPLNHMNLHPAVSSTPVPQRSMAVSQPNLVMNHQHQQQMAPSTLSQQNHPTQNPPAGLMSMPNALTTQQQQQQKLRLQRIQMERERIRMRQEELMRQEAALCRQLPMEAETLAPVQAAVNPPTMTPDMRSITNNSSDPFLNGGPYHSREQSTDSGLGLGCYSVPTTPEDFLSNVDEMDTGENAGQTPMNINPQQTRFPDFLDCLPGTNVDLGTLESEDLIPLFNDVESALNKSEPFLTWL

B1: Myc-CDK5RAP2-C1 (residues 1-580) (domain or fragment, UniProt Q96SN8-1 1-580)
chain: MMDLVLEEDVTVPGTLSGCSGLVPSVPDDLDGINPNAGLGNGLLPNVSEETVSPTRARNMKDFENQITELKKENFNLKLRIYFLEERMQQEFHGPTEHIYKTNIELKVEVESLKRELQEREQLLIKASKAVESLAEAGGSEIQRVKEDARKKVQQVEDLLTKRILLLEKDVTAAQAELEKAFAGTETEKALRLRLESKLSEMKKMHEGDLAMALVLDEKDRLIEELKLSLKSKEALIQCLKEEKSQMACPDENVSSGELRGLCAAPREEKERETEAAQMEHQKERNSFEERIQALEEDLREKEREIATEKKNSLKRDKAIQGLTMALKSKEKKVEELNSEIEKLSAAFAKAREALQKAQTQEFQGSEDYETALSGKEALSAALRSQNLTKSTENHRLRRSIKKITQELSDLQQERERLEKDLEEAHREKSKGDCTIRDLRNEVEKLRNEVNEREKAMENRYKSLLSESNKKLHNQEQVIKHLTESTNQKDVLLQKFNEKDLEVIQQNCYLMAAEDLELRSEGLITEKCSSQQPPGSKTIFSKEKKQSSDYEELIQVLKKEQDIYTHLVKSLQESDSINNL
B2: Myc-CDK5RAP2-C2 (residues 1-1271) (domain or fragment, UniProt Q96SN8-1 1-1271)
chain: MMDLVLEEDVTVPGTLSGCSGLVPSVPDDLDGINPNAGLGNGLLPNVSEETVSPTRARNMKDFENQITELKKENFNLKLRIYFLEERMQQEFHGPTEHIYKTNIELKVEVESLKRELQEREQLLIKASKAVESLAEAGGSEIQRVKEDARKKVQQVEDLLTKRILLLEKDVTAAQAELEKAFAGTETEKALRLRLESKLSEMKKMHEGDLAMALVLDEKDRLIEELKLSLKSKEALIQCLKEEKSQMACPDENVSSGELRGLCAAPREEKERETEAAQMEHQKERNSFEERIQALEEDLREKEREIATEKKNSLKRDKAIQGLTMALKSKEKKVEELNSEIEKLSAAFAKAREALQKAQTQEFQGSEDYETALSGKEALSAALRSQNLTKSTENHRLRRSIKKITQELSDLQQERERLEKDLEEAHREKSKGDCTIRDLRNEVEKLRNEVNEREKAMENRYKSLLSESNKKLHNQEQVIKHLTESTNQKDVLLQKFNEKDLEVIQQNCYLMAAEDLELRSEGLITEKCSSQQPPGSKTIFSKEKKQSSDYEELIQVLKKEQDIYTHLVKSLQESDSINNLQAELNKIFALRKQLEQDVLSYQNLRKTLEEQISEIRRREEESFSLYSDQTSYLSICLEENNRFQVEHFSQEELKKKVSDLIQLVKELYTDNQHLKKTIFDLSCMGFQGNGFPDRLASTEQTELLASKEDEDTIKIGEDDEINFLSDQHLQQSNEIMKDLSKGGCKNGYLRHTESKISDCDGAHAPGCLEEGAFINLLAPLFNEKATLLLESRPDLLKVVRELLLGQLFLTEQEVSGEHLDGKTEKTPKQKGELVHFVQTNSFSKPHDELKLSCEAQLVKAGEVPKVGLKDASVQTVATEGDLLRFKHEATREAWEEKPINTALSAEHRPENLHGVPGWQAALLSLPGITNREAKKSRLPILIKPSRSLGNMYRLPATQEVVTQLQSQILELQGELKEFKTCNKQLHQKLILAEAVMEGRPTPDKTLLNAQPPVGAAYQDSPGEQKGIKTTSSVWRDKEMDSDQQRSYEIDSEICPPDDLASLPSCKENPEDVLSPTSVATYLSSKSQPSAKVSVMGTDQSESINTSNETEYLKQKIHDLETELEGYQNFIFQLQKHSQCSEAIITVLCGTEGAQDGLSKPKNGSDGEEMTFSSLHQVRYVKHVKILGPLAPEMIDSRVLENLKQQLEEQEYKLQKEQNLNMQLFSEIHNLQNKFRDLSPPRYDSLVQSQARELSLQRQQIKDGHGICVISR

target: Flag-TAZ (UniProt Q9GZV5); experiment: co-IP; HEK293T cells co-transfected with Flag-TAZ and Myc-tagged CDK5RAP2 proteins; lysis in 10 mM Tris/HCl pH 7.4, 50 mM NaCl, 0.5% NP40; Flag-trap beads 2 h at 4 °C; blots probed with mAb 9E10 and pAb anti-Flag

binding, binds:
Myc-tagged full-length CDK5RAP2 (from UniProt Q96SN8-1 1-1893), B1, B2
